These are yes or no findings as the source states them, for the method shown. In cells and extracts the contact can be indirect. Some binding calls cover weakened binding; strength is not graded here. Where a sequence is shown, tags or fusion partners need not be part of it.
Target: FLAG-tagged Beclin1, Q14457
Experiment: co-IP; HK-2 cells with HA-SIRT1 and FLAG-Beclin1, with LPS stimulation; anti-FLAG, protein A + G agarose beads, overnight at 4 °C; blot anti-HA
Settings: remark: other sources report otherwise

B1: HA-tagged SIRT1, Q96EB6 1-747 (enzyme)
chain: MADEAALALQPGGSPSAAGADREAASSPAGEPLRKRPRRDGPGLERSPGEPGGAAPEREVPAAARGCPGAAAAALWREAEAEAAAAGGEQEAQATAAAGEGDNGPGLQGPSREPPLADNLYDEDDDDEGEEEEEAAAAAIGYRDNLLFGDEIITNGFHSCESDEEDRASHASSSDWTPRPRIGPYTFVQQHLMIGTDPRTILKDLLPETIPPPELDDMTLWQIVINILSEPPKRKKRKDINTIEDAVKLLQECKKIIVLTGAGVSVSCGIPDFRSRDGIYARLAVDFPDLPDPQAMFDIEYFRKDPRPFFKFAKEIYPGQFQPSLCHKFIALSDKEGKLLRNYTQNIDTLEQVAGIQRIIQCHGSFATASCLICKYKVDCEAVRGDIFNQVVPRCPRCPADEPLAIMKPEIVFFGENLPEQFHRAMKYDKDEVDLLIVIGSSLKVRPVALIPSSIPHEVPQILINREPLPHLHFDVELLGDCDVIINELCHRLGGEYAKLCCNPVKLSEITEKPPRTQKELAYLSELPPTPLHVSEDSSSPERTSPPDSSVIVTLLDQAAKSNDDLDVSESKGCMEEKPQEVQTSRNVESIAEQMENPDLKNVGSSTGEKNERTSVAGTVRKCWPNRVAKEQISRRLDGNQYLFLPPNRYIFHGAEVYSDSEDDVLSSSSCGSNSDSGTCQSPSLEEPMEDESEIEEFYNGLEDEPDVPERAGGAGFGTDGDDQEAINEAISVKQEVTDMNYPSNKS
With B1 the binding was “binds”.
